Earlier results in patent US20220313677A1, “METHODS FOR TREATING LIVER DISORDERS USING FXR AGONISTS” (Novartis AG, priority 2016, published 2022).
At least one structure is not confirmed: it was looked up by name or label, or the drawing left a doubt.

Conditions: clinical studies, doses between 5 mg and 50 mg; cited from earlier work

SMILES: CC[C@H]1[C@@H](O)[C@@H]2[C@H](CC[C@]3(C)[C@@H]([C@H](C)CCC(=O)O)CC[C@@H]23)[C@@]2(C)CC[C@@H](O)C[C@@H]12 [OCA, 6α-ethyl-chenodeoxycholic acid]
- efficacy in PBC and NASH subjects: showed efficacy
